Test results reported in the supplement of paper PMC12009310.
Counter-ions that a name gives are not always drawn. ± gives the standard deviation of the averaged measurements. Some of the results follow. Baselines shift from plate to plate; read single values as rough.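 The cells are a mouse kidney inner medullary collecting duct line, silenced either for the ciliary gene Rpgrip1l or with a non-targeting control siRNA.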

test system: mIMCD3; assay: robust z score of cell number vs plate controls; higher = more cells (less cytotoxic); conditions: 10 µM; 48 h; siRNA: siRpgrip1l

Compound | robust z score of cell number
Cc1[nH]c(/C=C2\C(=O)Nc3ccc(S(=O)(=O)Cc4c(Cl)cccc4Cl)cc32)c(C)c1C(=O)N1CCC[C@@H]1CN1CCCC1 | -9.15 ± 9.2
CCCn1c(=O)c(C)cn2nc(N)nc12 | -0.531 ± 0.51
Cc1cc(C)cc(C(=O)N(C)[C@H](Cc2ccc(-c3ccccc3)cc2)C(=O)N[C@@H](Cc2c[nH]c3ccccc23)C(=O)O)c1 | -44.8 ± 41
CCc1c2c(nc3ccc(OC(=O)N4CCC(N5CCCCC5)CC4)cc13)-c1cc3c(c(=O)n1C2)COC(=O)[C@]3(O)CC | -25.2 ± 24
O=c1[nH]c2cc(C(F)(F)F)c(N3CCOCC3)cc2n(CP(=O)(O)O)c1=O | -4.4 ± 3.7
O=C1N(c2ccccc2)c2ccccc2C1(Cc1ccncc1)Cc1ccncc1 [Linopirdine dihydrochloride] | -6.12 ± 9.5
C[C@@H](NCc1cc(Br)cc2[nH]c(=O)c(=O)[nH]c12)P(=O)(O)O | -30.3 ± 35
Cl/C(=C\n1cncn1)c1ccc(Cl)cc1Cl [Loreclezole hydrochloride] | -40.4 ± 28
O=C(NCCNCC(O)COc1ccc(O)cc1)N1CCOCC1 (stereo not drawn) [Xamoterol hemifumarate] | -1.82 ± 0.61
COc1ccc(Cl)cc1NC(=O)Nc1cc(C)nc2ccccc12 | -31 ± 29
Nc1nc2c(nc(Br)n2[C@@H]2O[C@@H]3COP(=O)(O)O[C@H]3[C@H]2O)c(=O)[nH]1 [8-Bromo-cGMP, sodium salt] | -12 ± 9.8
CN(C)C(=O)C(=O)c1cn(C)c2cc(Cl)c(C(=O)N3CCC(Cc4ccc(F)cc4)CC3)cc12 | -43.6 ± 37
CSc1cc2c(cc1C(F)(F)F)N(C(=O)Nc1cccnc1)CC2 | -33 ± 32
N#C/C(=C\c1ccc(O)c(O)c1)C(=O)NCCCc1ccccc1 | -48.9 ± 64
Nc1c(S(=O)(=O)O)cc(Nc2cccc3ccccc23)c2c1C(=O)c1ccccc1C2=O | -27.9 ± 8.8
CC(=O)OCCNC(=O)c1cccnc1 [N-[2-(Acetoxy)ethyl]-3-pyridinecarboxamide] | 8.09 ± 15
Cc1ccccc1N=Nc1ccc(NC(=O)c2ccnn2C)c(C)c1 | -94.7 ± 67
NCCc1c[nH]cn1 [Histamine dihydrochloride] | -23.7 ± 17
CCOc1ccccc1OC(c1ccccc1)C1CNCCO1 (stereo not drawn) [Reboxetine mesylate] | 1.29 ± 2.4
CCC(=O)OCN1C(=O)C=CC1=O | -22.1 ± 29

Compound | robust z score of cell number
C[C@H](NC[C@H](O)CP(=O)(O)CC1CCCCC1)c1ccc(Cl)c(Cl)c1 | -11.3 ± 5.7
O=C(O)CN1C(=O)c2cccc3cccc(c23)C1=O [Alrestatin] | -13.9 ± 20
CC1CCN(CCCC(=O)c2ccc(F)cc2)CC1 [Melperone hydrochloride] | -6.01 ± 3.4
CC(C)NCC(O)COc1ccc(CCOCC2CC2)cc1 (stereo not drawn) [Betaxolol hydrochloride] | -5.445 ± 0.053
Nc1nc2c(ncn2COCCO)c(=O)[nH]1 [Acyclovir] | -7.67 ± 3.4
Cc1noc(NS(=O)(=O)c2cccc3c(N(C)C)cccc23)c1C | -33 ± 40
CCN(CC)CC1CCCCN1CC(=O)N1c2ccccc2C(=O)Nc2cccnc21 (stereo not drawn) | -12.8 ± 9.9
N[C@@H](C(=O)O)c1ccc(O)c(C(=O)O)c1 [(R)-3-Carboxy-4-hydroxyphenylglycine] | 19.2 ± 30
c1cc2c3c(c1)c1c(n3CCNC2)CCCC1 [WAY 629 hydrochloride] | -1.78 ± 2.6
O=c1c(-c2ccc(O)cc2)coc2cc(O)cc(O)c12 [Genistein] | -30.2 ± 23
C[C@@]1(O)[C@H](O)[C@@H](CO)O[C@H]1n1cnc2c(NC3CCCC3)nc(Cl)nc21 | -2.97 ± 2.4
CC(/C=C/c1cccc(Oc2ccc(F)cc2)c1)N(O)C(N)=O (stereo not drawn) | -151 ± 110
Oc1ccc(/C=C/c2cc(O)cc(O)c2)cc1 [Resveratrol] | -283 ± 200
c1cc2c(cc1C1CCCCC1)c1c3n2CCNC3CCC1 (stereo not drawn) [Tetrindole mesylate] | -55.9 ± 18
O=C(O)C1(C(=O)O)CCC1.[NH2-].[NH2-].[Pt+2] [Carboplatin] | -3.82 ± 4.7
OC(CN1CCC(Cc2ccc(F)cc2)CC1)c1ccc(Cl)cc1 (stereo not drawn) [Eliprodil] | -3.72 ± 1.5
N[C@@H](Cc1cc(-c2ccc(Cl)cc2Cl)cc(CP(=O)(O)O)c1O)C(=O)O | -37.2 ± 41
Nc1[nH]nc2nnc(-c3c(-c4ccccc4)nn4ccccc34)cc12 | -9.6 ± 5.5
CN(C)CCC=C1c2ccccc2COc2ccccc21 [Doxepin hydrochloride] | 2.74 ± 5

same assay, conditions: 10 µM; 48 h; siRNA: siScr

Compound | robust z score of cell number
Cc1[nH]c(/C=C2\C(=O)Nc3ccc(S(=O)(=O)Cc4c(Cl)cccc4Cl)cc32)c(C)c1C(=O)N1CCC[C@@H]1CN1CCCC1 | -7.28 ± 3.1
CCCn1c(=O)c(C)cn2nc(N)nc12 | -1.51 ± 1.4
Cc1cc(C)cc(C(=O)N(C)[C@H](Cc2ccc(-c3ccccc3)cc2)C(=O)N[C@@H](Cc2c[nH]c3ccccc23)C(=O)O)c1 | -44.6 ± 29
CCc1c2c(nc3ccc(OC(=O)N4CCC(N5CCCCC5)CC4)cc13)-c1cc3c(c(=O)n1C2)COC(=O)[C@]3(O)CC | -12.2 ± 9.7
O=c1[nH]c2cc(C(F)(F)F)c(N3CCOCC3)cc2n(CP(=O)(O)O)c1=O | 0.228 ± 0.69
O=C1N(c2ccccc2)c2ccccc2C1(Cc1ccncc1)Cc1ccncc1 [Linopirdine dihydrochloride] | -5.17 ± 2.9
C[C@@H](NCc1cc(Br)cc2[nH]c(=O)c(=O)[nH]c12)P(=O)(O)O | 2.25 ± 2.4
Cl/C(=C\n1cncn1)c1ccc(Cl)cc1Cl [Loreclezole hydrochloride] | -3.92 ± 0.84
O=C(NCCNCC(O)COc1ccc(O)cc1)N1CCOCC1 (stereo not drawn) [Xamoterol hemifumarate] | 1.9 ± 0.35
COc1ccc(Cl)cc1NC(=O)Nc1cc(C)nc2ccccc12 | -14.6 ± 13
Nc1nc2c(nc(Br)n2[C@@H]2O[C@@H]3COP(=O)(O)O[C@H]3[C@H]2O)c(=O)[nH]1 [8-Bromo-cGMP, sodium salt] | 1.66 ± 4.6
CN(C)C(=O)C(=O)c1cn(C)c2cc(Cl)c(C(=O)N3CCC(Cc4ccc(F)cc4)CC3)cc12 | -16.6 ± 16
CSc1cc2c(cc1C(F)(F)F)N(C(=O)Nc1cccnc1)CC2 | -0.783 ± 0.065
N#C/C(=C\c1ccc(O)c(O)c1)C(=O)NCCCc1ccccc1 | -8.37 ± 5.7
Nc1c(S(=O)(=O)O)cc(Nc2cccc3ccccc23)c2c1C(=O)c1ccccc1C2=O | -128 ± 99
CC(=O)OCCNC(=O)c1cccnc1 [N-[2-(Acetoxy)ethyl]-3-pyridinecarboxamide] | -1.22 ± 0.75
Cc1ccccc1N=Nc1ccc(NC(=O)c2ccnn2C)c(C)c1 | -17.8 ± 4
NCCc1c[nH]cn1 [Histamine dihydrochloride] | -28.61 ± 0.1
CCOc1ccccc1OC(c1ccccc1)C1CNCCO1 (stereo not drawn) [Reboxetine mesylate] | 2.55 ± 1.6
CCC(=O)OCN1C(=O)C=CC1=O | -1.95 ± 1.2

Compound | robust z score of cell number
C[C@H](NC[C@H](O)CP(=O)(O)CC1CCCCC1)c1ccc(Cl)c(Cl)c1 | 1.63 ± 0.56
O=C(O)CN1C(=O)c2cccc3cccc(c23)C1=O [Alrestatin] | -8.95 ± 13
CC1CCN(CCCC(=O)c2ccc(F)cc2)CC1 [Melperone hydrochloride] | -9.32 ± 4.7
CC(C)NCC(O)COc1ccc(CCOCC2CC2)cc1 (stereo not drawn) [Betaxolol hydrochloride] | -3.75 ± 4.6
Nc1nc2c(ncn2COCCO)c(=O)[nH]1 [Acyclovir] | -39.6 ± 40
Cc1noc(NS(=O)(=O)c2cccc3c(N(C)C)cccc23)c1C | -3.24 ± 1.7
CCN(CC)CC1CCCCN1CC(=O)N1c2ccccc2C(=O)Nc2cccnc21 (stereo not drawn) | 0.226 ± 1.6
N[C@@H](C(=O)O)c1ccc(O)c(C(=O)O)c1 [(R)-3-Carboxy-4-hydroxyphenylglycine] | -5.73 ± 6.5
c1cc2c3c(c1)c1c(n3CCNC2)CCCC1 [WAY 629 hydrochloride] | -4.82 ± 3.3
O=c1c(-c2ccc(O)cc2)coc2cc(O)cc(O)c12 [Genistein] | -8.29 ± 3.2
C[C@@]1(O)[C@H](O)[C@@H](CO)O[C@H]1n1cnc2c(NC3CCCC3)nc(Cl)nc21 | -3.04 ± 1.7
CC(/C=C/c1cccc(Oc2ccc(F)cc2)c1)N(O)C(N)=O (stereo not drawn) | -18.1 ± 5
Oc1ccc(/C=C/c2cc(O)cc(O)c2)cc1 [Resveratrol] | -37.1 ± 7.7
c1cc2c(cc1C1CCCCC1)c1c3n2CCNC3CCC1 (stereo not drawn) [Tetrindole mesylate] | -42.2 ± 6.7
O=C(O)C1(C(=O)O)CCC1.[NH2-].[NH2-].[Pt+2] [Carboplatin] | -25.2 ± 30
OC(CN1CCC(Cc2ccc(F)cc2)CC1)c1ccc(Cl)cc1 (stereo not drawn) [Eliprodil] | -9.09 ± 10
N[C@@H](Cc1cc(-c2ccc(Cl)cc2Cl)cc(CP(=O)(O)O)c1O)C(=O)O | 0.555 ± 3.5
Nc1[nH]nc2nnc(-c3c(-c4ccccc4)nn4ccccc34)cc12 | -12.7 ± 4.6
CN(C)CCC=C1c2ccccc2COc2ccccc21 [Doxepin hydrochloride] | -1.03 ± 2.5
